The supplement of paper PMC10338343
± gives the standard deviation. Only a part is listed here, and it is no random draw. The uncertainty is large for many entries.

Test system: MILI (PIWIL2) piRISC loaded with piRNA #1 (26 nt);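 note: 1 nM active piRISC with 0.1 nM target library at 33 °C single turnover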
Test: pre-steady-state target cleavage rate (min^-1); higher = faster piRNA-guided slicing of the target
Details: guide: piRNA #1 5'p-UGAGGUAGUAGGUUGUAUAGUAUCCA; auxiliary factor: 500 nM mouse GTSF1
Method in brief: (§1)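 Reactions were run for 0–8 or 0–960 min at 33 °C in HEPES–potassium acetate buffer, combining 1 nM active affinity-purified piRISC with one synthetic guide, […] transcribed, DNA-blocked target RNA library and, in some cases, 500 nM GTSF1 partner protein. Sequencing of uncleaved targets followed, with normalisation to depth and to weakly complementary targets. Three trials were pooled, k3 was capped at 0.0001 min^-1, and the pre-steady-state cleavage rate was taken from a burst-and-steady-state fit.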

Sequence | pre-steady-state target cleavage rate
GGAGACCUAACUAUACAACUUACUACCUCA | 0.0179 ± 0.0043
GGAGACCAUACUAAACAUCCUACUACCUCA | 0.272 ± 0.022
GGAGACGAUACUAUACAACCAUGAUGGAGA [g11:g24:cont:t1A] | 0.000137 ± 0.023
GGAGACGAUACAAUACAACGUACUACCUCA | 0.0185 ± 0.0029
GGAGACCUAUGAUAACAACCUCACUACCUCA | 0.00312 ± 0.0032
GGAGACCUAUCUAUACAAGCUACUACCUCA | 0.193 ± 0.017
GGAGACCUAUCUAAACAACCUAGUACCUCA | 0.0109 ± 0.0036
GGAGACCUUACUAUACAUCGUACUACCUCA | 0.0364 ± 0.0047
GGAGAGGAUACUAUACAACCUUACUACCUCA | 0.00257 ± 0.0029
GGAGACCUAACUAUACAACCAACUACGUCA | 0.00208 ± 0.0062
GGAGACCUAACUAUACAACCUACUAGCUGA | 0.00434 ± 0.0053
GGAGAGGAUUCUAUACAACCUACAACCUCA | 0.0904 ± 0.012
GGAGAGGAUACUAUACAACCUACUUCGUCA | 0.000698 ± 0.0074
GGAGUGGAUACUAUUCAUCCUACUACCUCA | 0.265 ± 0.016
GGAGACCUUACUAUACAACCUACUAGCCUCA | 0.181 ± 0.018
GGAGACCUAAUCUAUACAACCUACUACCUCA | 0.11 ± 0.024
GGAGAGGAUACUAUACAACGUACUUCCUCA | 0.00271 ± 0.0043
GGAGACGAUACUAUUCAACCUUCUACCUCA | 0.0105 ± 0.0025
GGAGACCUAUGAUAUGAAGCUACUACCUCA | 0.000179 ± 0.016
GGAGACCUAUGAUUACAACCUAGUAGCUCA | 0.000602 ± 0.0094

Sequence | pre-steady-state target cleavage rate
GGAGAGGAUACUAUAAACCUACUACCUCA | 0.0203 ± 0.0036
GGAGACCUAUGAUAUAAACCUACUACCUCA | 0.000968 ± 0.0066
GGAGACCAUACUAUACAAGCUACUAGCUCA | 0.0756 ± 0.022
GGAGACCUAUCUAUACAACCUAGUACCUGA | 0.00107 ± 0.0053
GGAGACCAUACUAUACAACCUUCUACGUCA | 0.00397 ± 0.0034
GGAGAGGAUACUAUACAUACCUACUACCUCA | 0.00293 ± 0.0039
GGAGACCUAUCUAUAGAAGCUACUACCUCA | 0.143 ± 0.019
GGAGACCUUACUUUACAACCUACUACCACA | 0.14 ± 0.018
GGAGACCUAUGAUAACUACCUAGUACCUCA | 0.000174 ± 0.018
GGAGACCAUACUAUACAAGCUACUACCUCA | 0.253 ± 0.02
GGAGACCUAUGAUUAGAACGUACUACCUCA | 0.000267 ± 0.011
GGAGACCUAUGAAUACAACGAACUACCUCA | 0.00208 ± 0.0032
GGAGAGGAUACUAUACAACCAACUUCCUCA | 0.00119 ± 0.0043
GGAGACCUUACUAUACAACCUACAUACCUCA | 0.157 ± 0.011
GGAGACCUAUGAUAACAACCAUGUACCUCA | 0.000499 ± 0.0098
GGAGACCUAACUAUACGAACCUACUACCUCA | 0.000208 ± 0.049
GGAGACCUAUGUAUACAACCUACUACCUCG [g2:g19:cont:t1G] | 0.0649 ± 0.0098
GGAGACCUAUCUAUACAACCUACUAGCACA | 0.0357 ± 0.012
GGAGACCUAACUAUUCAACCUACUACCUCA | 0.138 ± 0.022
GGAGUGGAUACUAUACAACCUUGAACCUCA | 0.000195 ± 0.012

Test system: EfPiwi piRISC loaded with piRNA #1 (26 nt)
Test: pre-steady-state target cleavage rate (min^-1); guide: piRNA #1 5'p-UGAGGUAGUAGGUUGUAUAGUAUCCA; MIWI and MILI are mouse PIWI proteins and EfPiwi is from a freshwater sponge; tags in brackets are library labels; higher = faster piRNA-guided slicing of the target
Details: auxiliary factor: 500 nM Ephydatia muelleri Gtsf1
Method in brief: as §1

Sequence | pre-steady-state target cleavage rate
GGAGACCUAACUAUACAACUUACUACCUCA | 0.00241 ± 0.0044
GGAGACCAUACUAAACAUCCUACUACCUCA | 0.00263 ± 0.0027
GGAGACGAUACUAUACAACCAUGAUGGAGA [g11:g24:cont:t1A] | 0.000604 ± 0.0065
GGAGACGAUACAAUACAACGUACUACCUCA | 0.00285 ± 0.0031
GGAGACCUAUGAUAACAACCUCACUACCUCA | 0.000191 ± 0.014
GGAGACCUAUCUAUACAAGCUACUACCUCA | 0.00207 ± 0.0023
GGAGACCUAUCUAAACAACCUAGUACCUCA | 0.00117 ± 0.0037
GGAGACCUUACUAUACAUCGUACUACCUCA | 0.00232 ± 0.0043
GGAGAGGAUACUAUACAACCUUACUACCUCA | 0.00845 ± 0.0045
GGAGACCUAACUAUACAACCAACUACGUCA | 0.00371 ± 0.0045
GGAGACCUAACUAUACAACCUACUAGCUGA | 0.00306 ± 0.0047
GGAGAGGAUUCUAUACAACCUACAACCUCA | 0.00103 ± 0.0022
GGAGAGGAUACUAUACAACCUACUUCGUCA | 0.00697 ± 0.0031
GGAGUGGAUACUAUUCAUCCUACUACCUCA | 0.0078 ± 0.0036
GGAGACCUUACUAUACAACCUACUAGCCUCA | 0.00471 ± 0.0044
GGAGACCUAAUCUAUACAACCUACUACCUCA | 0.297 ± 0.099
GGAGAGGAUACUAUACAACGUACUUCCUCA | 0.00375 ± 0.0013
GGAGACGAUACUAUUCAACCUUCUACCUCA | 0.00443 ± 0.0025
GGAGACCUAUGAUAUGAAGCUACUACCUCA | 0.00145 ± 0.0047
GGAGACCUAUGAUUACAACCUAGUAGCUCA | 0.00233 ± 0.0048

Sequence | pre-steady-state target cleavage rate
GGAGAGGAUACUAUAAACCUACUACCUCA | 0.0039 ± 0.0043
GGAGACCUAUGAUAUAAACCUACUACCUCA | 0.000695 ± 0.0074
GGAGACCAUACUAUACAAGCUACUAGCUCA | 0.00358 ± 0.0038
GGAGACCUAUCUAUACAACCUAGUACCUGA | 0.0027 ± 0.0032
GGAGACCAUACUAUACAACCUUCUACGUCA | 0.00387 ± 0.0029
GGAGAGGAUACUAUACAUACCUACUACCUCA | 0.00503 ± 0.0053
GGAGACCUAUCUAUAGAAGCUACUACCUCA | 0.000289 ± 0.0074
GGAGACCUUACUUUACAACCUACUACCACA | 0.00203 ± 0.005
GGAGACCUAUGAUAACUACCUAGUACCUCA | 0.000253 ± 0.0078
GGAGACCAUACUAUACAAGCUACUACCUCA | 0.00377 ± 0.0015
GGAGACCUAUGAUUAGAACGUACUACCUCA | 0.000561 ± 0.0096
GGAGACCUAUGAAUACAACGAACUACCUCA | 0.000167 ± 0.031
GGAGAGGAUACUAUACAACCAACUUCCUCA | 0.00313 ± 0.0024
GGAGACCUUACUAUACAACCUACAUACCUCA | 0.00229 ± 0.0053
GGAGACCUAUGAUAACAACCAUGUACCUCA | 0.000267 ± 0.011
GGAGACCUAACUAUACGAACCUACUACCUCA | 0.00335 ± 0.005
GGAGACCUAUGUAUACAACCUACUACCUCG [g2:g19:cont:t1G] | 0.00909 ± 0.0048
GGAGACCUAUCUAUACAACCUACUAGCACA | 0.00164 ± 0.007
GGAGACCUAACUAUUCAACCUACUACCUCA | 0.00358 ± 0.0036
GGAGUGGAUACUAUACAACCUUGAACCUCA | 0.00462 ± 0.0029
